From paper PMC9130861 come the findings set out here.

The chains behind the UniProt entries cited, without tags or fusion partners.
UniProt Q8CJT1: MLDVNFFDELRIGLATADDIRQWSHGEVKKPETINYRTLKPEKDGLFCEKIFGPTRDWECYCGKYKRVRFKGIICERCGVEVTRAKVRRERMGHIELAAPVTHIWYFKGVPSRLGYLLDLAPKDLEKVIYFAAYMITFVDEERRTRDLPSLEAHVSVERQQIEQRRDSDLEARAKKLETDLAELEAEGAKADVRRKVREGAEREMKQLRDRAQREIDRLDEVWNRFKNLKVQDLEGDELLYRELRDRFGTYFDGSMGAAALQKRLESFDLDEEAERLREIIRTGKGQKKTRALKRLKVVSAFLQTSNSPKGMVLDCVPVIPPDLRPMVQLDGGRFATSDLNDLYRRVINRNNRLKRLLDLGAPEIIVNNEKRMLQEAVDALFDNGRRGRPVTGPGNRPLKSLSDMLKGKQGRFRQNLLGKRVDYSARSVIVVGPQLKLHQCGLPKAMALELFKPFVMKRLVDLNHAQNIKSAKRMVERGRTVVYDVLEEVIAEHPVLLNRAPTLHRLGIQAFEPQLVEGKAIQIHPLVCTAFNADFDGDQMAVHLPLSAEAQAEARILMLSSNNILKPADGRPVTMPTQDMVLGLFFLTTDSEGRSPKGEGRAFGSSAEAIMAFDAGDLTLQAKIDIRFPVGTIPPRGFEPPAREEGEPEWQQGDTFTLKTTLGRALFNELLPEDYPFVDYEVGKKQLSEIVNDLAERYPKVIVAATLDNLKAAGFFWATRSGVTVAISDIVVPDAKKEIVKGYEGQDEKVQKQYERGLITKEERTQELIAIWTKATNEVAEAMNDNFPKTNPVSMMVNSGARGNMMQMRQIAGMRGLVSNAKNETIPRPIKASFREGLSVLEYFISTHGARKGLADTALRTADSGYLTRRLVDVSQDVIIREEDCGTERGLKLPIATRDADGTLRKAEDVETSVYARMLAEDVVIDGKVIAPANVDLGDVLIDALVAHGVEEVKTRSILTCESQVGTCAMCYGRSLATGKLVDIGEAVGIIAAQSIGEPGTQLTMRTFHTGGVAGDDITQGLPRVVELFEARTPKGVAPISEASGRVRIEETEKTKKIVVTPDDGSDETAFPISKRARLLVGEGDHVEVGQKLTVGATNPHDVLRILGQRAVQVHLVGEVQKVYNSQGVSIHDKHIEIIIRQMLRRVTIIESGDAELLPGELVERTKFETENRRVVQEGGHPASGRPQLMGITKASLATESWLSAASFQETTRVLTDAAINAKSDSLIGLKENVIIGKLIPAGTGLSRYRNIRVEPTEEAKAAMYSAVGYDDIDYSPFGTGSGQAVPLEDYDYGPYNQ
UniProt Q9L0L0: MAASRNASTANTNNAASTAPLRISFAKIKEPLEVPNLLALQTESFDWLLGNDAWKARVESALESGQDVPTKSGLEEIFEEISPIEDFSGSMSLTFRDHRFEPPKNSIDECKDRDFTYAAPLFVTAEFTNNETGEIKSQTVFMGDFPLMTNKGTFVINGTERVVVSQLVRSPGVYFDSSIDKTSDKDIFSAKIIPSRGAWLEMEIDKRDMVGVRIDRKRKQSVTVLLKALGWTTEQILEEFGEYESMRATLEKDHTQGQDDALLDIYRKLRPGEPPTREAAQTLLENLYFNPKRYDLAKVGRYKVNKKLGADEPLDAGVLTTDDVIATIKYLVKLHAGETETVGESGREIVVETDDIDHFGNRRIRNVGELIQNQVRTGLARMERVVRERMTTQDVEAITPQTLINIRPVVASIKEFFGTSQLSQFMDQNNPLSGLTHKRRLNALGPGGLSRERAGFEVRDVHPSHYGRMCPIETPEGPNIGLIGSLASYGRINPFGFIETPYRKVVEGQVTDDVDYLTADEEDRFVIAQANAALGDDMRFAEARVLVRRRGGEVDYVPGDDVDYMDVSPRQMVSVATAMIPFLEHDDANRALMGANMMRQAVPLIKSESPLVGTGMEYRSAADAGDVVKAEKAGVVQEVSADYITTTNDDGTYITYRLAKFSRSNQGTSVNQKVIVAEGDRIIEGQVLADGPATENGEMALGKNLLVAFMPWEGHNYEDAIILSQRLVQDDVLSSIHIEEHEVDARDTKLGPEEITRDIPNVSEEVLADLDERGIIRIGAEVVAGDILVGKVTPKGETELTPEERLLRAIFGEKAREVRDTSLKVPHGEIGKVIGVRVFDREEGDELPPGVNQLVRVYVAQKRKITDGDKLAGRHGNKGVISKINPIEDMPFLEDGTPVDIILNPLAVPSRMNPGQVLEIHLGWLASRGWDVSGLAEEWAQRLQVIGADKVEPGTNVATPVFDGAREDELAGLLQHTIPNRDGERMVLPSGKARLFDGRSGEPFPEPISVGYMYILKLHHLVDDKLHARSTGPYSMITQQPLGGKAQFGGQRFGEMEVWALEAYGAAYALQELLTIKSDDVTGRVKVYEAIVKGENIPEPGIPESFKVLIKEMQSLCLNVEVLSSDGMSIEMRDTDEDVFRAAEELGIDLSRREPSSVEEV

Results are given in words; binding and its absence hold for the method and conditions named. In cells and extracts the contact can be indirect. Some entries that bind do so weakly or less than the wild type. Tags and fused reporters may be left off the sequences shown.

T1: HA-tagged HrdB (primary sigma factor of S. coelicolor) (S. coelicolor) (UniProt P18183)
T1 sequence: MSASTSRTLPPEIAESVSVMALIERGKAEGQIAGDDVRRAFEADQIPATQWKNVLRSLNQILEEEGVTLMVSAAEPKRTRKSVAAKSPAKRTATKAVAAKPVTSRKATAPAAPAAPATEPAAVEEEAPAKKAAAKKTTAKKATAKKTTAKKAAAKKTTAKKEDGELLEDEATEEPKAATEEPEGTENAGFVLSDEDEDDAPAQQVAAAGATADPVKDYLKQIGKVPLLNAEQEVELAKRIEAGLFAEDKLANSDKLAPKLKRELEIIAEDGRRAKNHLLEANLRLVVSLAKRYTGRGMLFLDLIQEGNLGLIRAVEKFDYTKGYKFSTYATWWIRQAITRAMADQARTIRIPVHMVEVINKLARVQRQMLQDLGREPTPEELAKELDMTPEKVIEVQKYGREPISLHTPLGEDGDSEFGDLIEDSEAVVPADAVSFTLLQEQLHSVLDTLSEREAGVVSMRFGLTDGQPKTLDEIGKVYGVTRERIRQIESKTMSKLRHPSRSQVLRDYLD

B1: RNA polymerase α subunit (S. coelicolor) (protein, UniProt P60312 1-340)
chain: MLIAQRPSLTEEVVDEFRSRFVIEPLEPGFGYTLGNSLRRTLLSSIPGAAVTSIRIDGVLHEFTTVPGVKEDVTDLILNIKQLVVSSEHDEPVVMYLRKQGPGLVTAADIAPPAGVEVHNPDLVLATLNGKGKLEMELTVERGRGYVSAVQNKQVGQEIGRIPVDSIYSPVLKVTYKVEATRVEQRTDFDKLIVDVETKQAMRPRDAMASAGKTLVELFGLARELNIDAEGIDMGPSPTDAALAADLALPIEELELTVRSYNCLKREGIHSVGELVARSEADLLDIRNFGAKSIDEVKAKLAGMGLALKDSPPGFDPTAAADAFGADDDADAGFVETEQY

For this assay, the target named is T1, HA-tagged HrdB (primary sigma factor of S. coelicolor) (S. coelicolor). Kind of assay: co-IP; lysates (500 μg protein) of S. coelicolor expressing HA-tagged HrdB, 42 h and 66 h after germination; anti-HA antibody (clone HA-7) on Protein G plus agarose beads, 16-18 h at 4°C; washed 4 times with 20 mM Tris-HCl pH 7.9, 150 mM KCl, 1 mM MgCl2; eluted proteins on SDS-PAGE stained with Coomassie, band identities verified by mass spectrometry.
Take “RNA polymerase β′ subunit (S. coelicolor) (from UniProt Q8CJT1 1-1299)”: the binding result is “binds”. On to “RNA polymerase β subunit (S. coelicolor) (from UniProt Q9L0L0 1-1161)”, for which the binding result is reported as “binds”. For B1, the binding result is recorded as “binds”.
